This is an account of results in article doi:10.1101/2022.07.11.499655.

The assay concerns the target NCOR2-013 (Flag-tagged), truncated protein of NCOR2/SMRT (human). In words: co-IP.

Results are given in words; binding and its absence hold for the method and conditions named. Binding seen in cells or lysates may run through a third protein. Binding can be weak; no strength is given.

B1: JunB (protein, UniProt P17275 1-347)
chain: MCTKMEQPFYHDDSYTATGYGRAPGGLSLHDYKLLKPSLAVNLADPYRSLKAPGARGPGPEGGGGGSYFSGQGSDTGASLKLASSELERLIVPNSNGVITTTPTPPGQYFYPRGGGSGGGAGGAGGGVTEEQEGFADGFVKALDDLHKMNHVTPPNVSLGATGGPPAGPGGVYAGPEPPPVYTNLSSYSPASASSGGAGAAVGTGSSYPTTTISYLPHAPPFAGGHPAQLGLGRGASTFKEEPQTVPEARSRDATPPVSPINMEDQERIKVERKRLRNRLAATKCRKRKLERIARLEDKVKTLKAENAGLSSTAGLLREQVAQLKQKVMTHVSNGCQLLLGVKGHAF
For the molecule B1, the binding result is “binds”.

B2: JunD (protein, UniProt P17535 1-347)
chain: METPFYGDEALSGLGGGASGSGGSFASPGRLFPGAPPTAAAGSMMKKDALTLSLSEQVAAALKPAAAPPPTPLRADGAPSAAPPDGLLASPDLGLLKLASPELERLIIQSNGLVTTTPTSSQFLYPKVAASEEQEFAEGFVKALEDLHKQNQLGAGAAAAAAAAAAGGPSGTATGSAPPGELAPAAAAPEAPVYANLSSYAGGAGGAGGAATVAFAAEPVPFPPPPPPGALGPPRLAALKDEPQTVPDVPSFGESPPLSPIDMDTQERIKAERKRLRNRIAASKCRKRKLERISRLEEKVKTLKSQNTELASTASLLREQVAQLKQKVLSHVNSGCQLLPQHQVPAY
For the molecule B2, the binding entry is “no binding”.
